About 4,300 (3.1%) of roughly 140,000 compounds were called active. This list was built around the results that the source calls inconclusive (neither active nor inactive); the mix of calls is not that of the screen.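 Rule for the calls: active = readout at or below -70, meaning at least 70% loss of cells showing the perinucleolar compartment, a nuclear body marking cancer cells; inconclusive = readout between -30 and a set limit; inactive = the rest.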
Assay: High Content Assay for Compounds that inhibit the Assembly of the Perinucleolar Compartment;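 note: plate controls were DMSO wells for no effect and camptothecin positive control wells for full effect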
Details: PC3M PTB-GFP, PNC prevalence imaging, 16 h; at 10 µM; hits give low values
In short: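 Compounds are pinned in duplicate onto adhered PC3M cells stably expressing GFP-tagged PTB and incubated 16 h at 37 C. Cells are then fixed, nuclei stained with Hoechst, and PNC-positive cells counted.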

Compound	activity change (PNC), negative = inhibition
COc1ccc(C(c2nnnn2Cc2ccccc2)N2CCN(c3ccccc3)CC2)cc1 (stereo not given)	inactive: 26.9%
CN1C(=O)CC(n2c(CO)nc3ccccc32)C1=O (stereo not given)	inconclusive: -73.1%
O=C(CC(c1ccccc1)c1ccccc1)OCn1nnc2ccccc2c1=O	inactive: 11.4%
CCN=C1SC(C(=O)Nc2ccccc2)CC(=O)N1CC (stereo not given)	active: -85.4%
Cc1cc(NC(=O)c2cccc(S(=O)(=O)N3CCOCC3)c2)no1	inconclusive: -71%
CCCn1c(SCC(=O)Nc2nonc2C)nnc1-c1ccoc1C	inactive: 5.98%
CCCN1C(=O)SC(CC(=O)Nc2ccc(C)cc2)C1=O (stereo not given)	active: -100%
CCOC(=O)COc1ccccc1/C=C\[N+](=O)[O-]	inconclusive: -73.6%
COc1ccc(CCNC(=O)c2cc(-c3ccccc3O)n[nH]2)cc1OC	inconclusive: -60.5%
CCc1c(C)n2nc(C)cc2[nH]c1=O	inconclusive: -32.2%
O=C(COC(=O)c1ccccc1)Nc1ccccc1N1CCOCC1	inconclusive: -35%
COc1cccc(C2CC(c3ccccc3)n3ncnc3N2)c1 (stereo not given)	inconclusive: -34.3%
COCCN(CC(=O)NCC1CCCO1)C(=O)CCC(=O)Nc1cc(C)ccn1 (stereo not given)	inconclusive: -47.4%
O=C(CN1CCN(c2nc(-c3ccc(F)cc3)cs2)CC1)NCc1ccc2c(c1)OCO2	inconclusive: -64.7%
COCCOC(=O)c1[nH]c2c(c1C)C(=O)CC(c1ccc(N(C)C)cc1)C2 (stereo not given)	inconclusive: -33%
COc1ccc(OC)c(/C=C(\NC(=O)c2ccccc2)C(=O)N/N=C/c2ccc(C)s2)c1	inconclusive: -39.8%
CC1(C)CC(=O)c2cnc(NCC3CCCO3)nc2C1 (stereo not given)	inconclusive: -42.4%
O=C(NCc1cccs1)C1CC(=O)N(c2ccccc2)C1 (stereo not given)	inconclusive: -71.1%
O=C(Cn1cc2c(n1)CCCCC2)NCCN1CCOCC1	inconclusive: -54.8%
CC(=O)N1CCc2cc(S(=O)(=O)CCC(=O)Nc3c(C)n(C)n(-c4ccccc4)c3=O)ccc21	inactive: -4.45%
Cc1c(Cl)c([N+](=O)[O-])nn1CC(=O)Nc1c(C)n(C)n(-c2ccccc2)c1=O	inconclusive: -30.4%
Cc1ccc(-c2nc(C3CCN(S(C)(=O)=O)CC3)no2)cc1	inconclusive: -64.5%
CCCC1CCC(C(=O)Nn2cnc3ccccc3c2=O)CC1 (stereo not given)	inactive: 16.7%

Compound	activity change (PNC), negative = inhibition
COc1ccc(-c2c3c(=O)n(C)c(=O)n(C)c3cn2-c2ccccc2)cc1	active: -90.9%
CCN1CCc2c(sc(NC(=O)Nc3ccc(Cl)c(Cl)c3)c2C(N)=O)C1	active: -118%
Cc1ccc(C(NC(=O)/C=C\c2ccc3c(c2)OCO3)C(=O)Nc2ccc3c(c2)OCO3)cc1 (stereo not given)	inconclusive: -33.7%
CC(=O)NC1=NN(C(C)=O)C(C)(CCS(=O)(=O)c2ccc(Cl)c(Cl)c2)S1 (stereo not given)	inactive: 72.1%
Cc1ccc(C(=O)COC(=O)CNC(=O)c2ccco2)cc1	inactive: 10.4%
COc1ccc(C2=NC(=O)/C(=C\c3cc(OC)c(OC)c(OC)c3)O2)cc1	inconclusive: -60.3%
CC1CCN(S(=O)(=O)c2cnc(Cl)c(Br)c2)CC1	inactive: 56.7%
O=C(COC(=O)c1cnccn1)NCCc1ccccc1	inconclusive: -49.8%
COc1ccc(-c2csc(=Nc3ccccc3)n2CCO)cc1	inactive: -19.2%
Cc1csc(C(=O)O)c1-n1cccc1	inconclusive: -50.6%
Cc1ccc(C(=O)N/C(=C/c2cccs2)C(=O)NCc2ccco2)cc1	inactive: -11.7%
CC(=O)N1CCN(c2ccc(NC(=O)c3cccc(OCc4ccccc4)c3)cc2)CC1	inconclusive: -31.7%
CCOC(=O)C(CC)Sc1nnc2n1C(C)(C)Cc1ccccc1-2 (stereo not given)	inconclusive: -48.4%
COc1cccc(C2CC(c3cccc(Br)c3)n3nc(N)nc3N2)c1 (stereo not given)	inactive: -25.9%
O=C(Nc1ccccc1)N1C2CCC1CC(O)(c1cccnc1)C2 (stereo not given)	inconclusive: -39.9%
CCN(CC)CC(C(=O)N(CC)CC)P(=O)(c1ccccc1)c1ccccc1 (stereo not given)	inconclusive: -51.4%
O=C(CSC1=NS(=O)(=O)c2ccccc21)Nc1ccccc1	inactive: 0.0378%
CCOC(=O)c1sc(NC(=O)CN(CC(C)C)CC(C)C)c(C(=O)OCC)c1C	active: -110%
COc1ccc(CN2C(=O)c3ccccc3C2C(=O)NCc2cccnc2)c(OC)c1 (stereo not given)	inconclusive: -31.3%
Cc1ccc2c(c1)C(O)(CC(=O)/C=C/C=C/c1ccccc1)C(=O)N2 (stereo not given)	active: -91.9%
COC(=O)c1ccc(NC(CC(C)C)C(=O)OC)c([N+](=O)[O-])c1 (stereo not given)	active: -119%
O=C1C2C3C=CC(C3)C2C(=O)N1/N=C/c1cn(Cc2ccc(F)cc2)c2ccccc12 (stereo not given)	inactive: 12.9%
c1ccc2c(c1)CNc1ccccc1C2	inconclusive: -53%

Compound	activity change (PNC), negative = inhibition
O=C(CC1CCCCC1)c1c(O)c2ccccc2oc1=O	inactive: -25.5%
Cc1ccc(-c2nc(-c3cccnc3)sc2CC(=O)Nc2ccc3nc(C)sc3c2)cc1	inconclusive: -45.8%
O=C(Nc1ccccc1)Nc1cccc2cccnc12	inconclusive: -30.4%
Cc1cc(C(=O)COC(=O)Cc2n[nH]c(=O)c3ccccc23)c(C)n1-c1ccc2c(c1)OCO2	inconclusive: -33.1%
c1ccc(OCc2nc(-c3ccccc3)no2)cc1	inconclusive: -36.1%
CC(C)(C)C(=O)NC(NC(=S)Nc1ccc(S(N)(=O)=O)cc1)C(Cl)(Cl)Cl (stereo not given)	inconclusive: -40.8%
COc1ccccc1CC(=O)NC1CC(C)(C)NC(C)(C)C1	inconclusive: -42.2%
COc1ccc(OC)c(C(=O)CSc2nnc(-c3ccc(OC)c(OC)c3)o2)c1	inconclusive: -57.4%
COc1ccc(CN2CCN(C(=O)c3ccco3)CC2)cc1OCc1ccccc1	inactive: 12.1%
Cc1cc(C)c(NC(=S)N2CCC(N(C)CC3CCCO3)CC2)c(C)c1 (stereo not given)	inconclusive: -69.4%
O=C(COC(=O)c1cccc2ccccc12)Nc1ncc(C(F)(F)F)cc1Cl	inactive: 22.7%
CCCc1nnc(SCC(=O)N2CCOCC2)n1C	inactive: 8.36%
O=C(Cc1ccc(Nc2nc3ccc(Br)cc3[nH]2)cc1)NCCc1cccs1	inactive: 10.7%
CCc1c(OC(C)=O)c2ccccc2n(C)c1=O	inconclusive: -43.7%
O=C(CCCCCN1C(=O)c2ccccc2C1=O)NC1CCCC1	inactive: -0.626%
COc1ccccc1OCCNC(=O)c1cc(SC)ccc1Cl	active: -113%
Fc1ccc(CNc2nc3ccccc3n3cnnc23)cc1	inconclusive: -38.1%
C=C(C)CSc1nnc([C@@H](NC(=O)OC(C)(C)C)C(C)CC)o1 (stereo not given in full)	inconclusive: -41.5%
COc1cc2c(cc1NC(=O)CSc1nc3cc(Cl)ccc3s1)oc1ccccc12	inconclusive: -54%
Cc1ccccc1OCC(=O)NNC(=S)NC(=O)c1ccccc1[N+](=O)[O-]	inconclusive: -50.9%
Nc1nc2c(F)cccc2s1	inconclusive: -34.4%
CCCOc1ccc(/C(O)=C2\C(=O)C(=O)N(CCCN(C)C)C23C(=O)N(C)c2ccccc23)cc1 (stereo not given)	inconclusive: -55.3%
Cc1nc2ccccc2c(=O)n1CC(=O)N1CCOCC1	active: -84.7%

Compound	activity change (PNC), negative = inhibition
O=C(O)CCC(=O)N1CCN(c2ccc(C(=O)c3ccc(F)cc3)cc2)CC1	inconclusive: -36%
Cn1nnnc1SCC(=O)N1c2ccccc2Sc2ccccc21	inconclusive: -61.3%
NC(=O)C1CCN(C(=O)COc2ccc(S(=O)(=O)NCc3ccccc3)cc2Cl)CC1	inactive: -11.9%
O=C(O)c1ccc(NC(CSCc2ccc(F)cc2)C(=O)O)c([N+](=O)[O-])c1 (stereo not given)	inconclusive: -42.4%
CC(C)(C)Nc1nc(NN)nc(NC(C)(C)C)n1	inconclusive: -57.1%
COC(C(=O)NC1CC1)c1ccccc1 (stereo not given)	active: -114%
Cc1ccc(NCN2C(=O)C(=O)c3ccccc32)nc1	inconclusive: -35.6%
O=C1/C(=C\c2ccc(-c3ccccc3[N+](=O)[O-])o2)C(c2ccccc2)=NN1c1ccccc1	active: -85.9%
Cc1cccnc1NC(=O)c1ccccc1-c1ccccc1C(=O)Nc1ncccc1C	inconclusive: -44.1%
CCSc1ncc(/C=N/Nc2ccc(Cl)cc2)n1C	inactive: 31.4%
CCOP(=O)(OCC)C(Nc1cccc(C(F)(F)F)c1)c1ccc(C)cc1 (stereo not given)	inconclusive: -53.1%
N#CCC(CNc1ncc(C(F)(F)F)cc1Cl)OC(=O)c1cccc(C(F)(F)F)c1 (stereo not given)	inconclusive: -62.8%
COc1ccc(C2CC(C(F)(F)F)n3nc(C(=O)N(C)Cc4cn(C)nc4C)c(Cl)c3N2)cc1 (stereo not given)	inconclusive: -43.2%
CN1C2C=C3C(C#N)=C(N)C(C#N)(C#N)[C@@H](c4cccc(F)c4)[C@@H]3C1CC2 (stereo not given in full)	inactive: -17.1%
Cc1ccc(Nc2nc(N)nc(CSc3nccn3C)n2)c(C)c1	inconclusive: -60.9%
COc1ccc(S(=O)(=O)Nc2ccccc2C(=O)NC(C)(C)C)cc1OC	active: -112%
COc1cc2c(cc1NC(=S)Nc1ccccc1C)oc1ccccc12	inconclusive: -56.7%
COc1cccc(C2c3c(oc4cc(C)c(C)cc4c3=O)C(=O)N2CCCN(C)C)c1 (stereo not given)	inconclusive: -72.2%
Cc1ccc(S(=O)(=O)Nc2ccc3nc(-c4cccn4C)[nH]c3c2)cc1	inconclusive: -56.1%
O=C(Nc1ccccc1F)c1ccccc1-c1ccccc1	inconclusive: -42%
COc1ccc(S(=O)(=O)Nc2ccc(F)cc2)cc1N(C)S(=O)(=O)c1ccc(Cl)cc1	inconclusive: -33.5%

2 entries drawn at random from the list so far, as already listed:
Compound	activity change (PNC), negative = inhibition
O=C(O)c1ccc(NC(CSCc2ccc(F)cc2)C(=O)O)c([N+](=O)[O-])c1 (stereo not given)	inconclusive: -42.4%
Cc1ccc(Nc2nc(N)nc(CSc3nccn3C)n2)c(C)c1	inconclusive: -60.9%

In a second layout: entries from further up.
Compound,"activity change (PNC), negative = inhibition"
CCSc1ncc(/C=N/Nc2ccc(Cl)cc2)n1C,inactive: 31.4%
CCOP(=O)(OCC)C(Nc1cccc(C(F)(F)F)c1)c1ccc(C)cc1 (stereo not given),inconclusive: -53.1%

Source: PubChem BioAssay AID2417 (National Center for Advancing Translational Sciences (NCATS), 2010)
